Test in all cases: EMSA-SELEX-seq
Background: A gel shift assay detects complexes by their altered migration in electrophoresis.

In series [1] the test system is POU2 (OCT2 POU domain) + BOB1 (OBF1, OCA-B). The following applies: with BOB1 (ternary complex band); 20 mM Tris-HCl pH 7.6, 140 mM NaCl, 10% glycerol, 0.5 mM EDTA, 0.05% Triton X-100, 0.1 mg/mL BSA, 0.1 mg/mL poly(dI-dC), 5 mM DTT, room temperature, 20 min; high values mean tight binding; recombinant protein; only the motif is given; counted as no binding.
Series [2] addresses T1, POU2 (OCT2 POU domain) (human) (UniProt P09086).
T1 sequence (looked up, limits assumed): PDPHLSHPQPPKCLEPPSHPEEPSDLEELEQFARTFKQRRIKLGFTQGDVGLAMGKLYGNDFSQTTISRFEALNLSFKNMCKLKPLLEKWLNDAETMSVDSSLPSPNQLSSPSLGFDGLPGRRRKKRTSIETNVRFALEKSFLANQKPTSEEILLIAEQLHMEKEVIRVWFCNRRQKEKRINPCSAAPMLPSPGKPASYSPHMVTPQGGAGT
The following applies: no BOB1; 20 mM Tris-HCl pH 7.6, 140 mM NaCl, 10% glycerol, 0.5 mM EDTA, 0.05% Triton X-100, 0.1 mg/mL BSA, 0.1 mg/mL poly(dI-dC), 5 mM DTT, room temperature, 20 min; high values mean tight binding; recombinant protein; only the motif is given; counted as no binding.

The subject of series [3] is POU1 (OCT1 POU domain) + BOB1 (OBF1, OCA-B). The following applies: with BOB1 (ternary complex band); 20 mM Tris-HCl pH 7.6, 140 mM NaCl, 10% glycerol, 0.5 mM EDTA, 0.05% Triton X-100, 0.1 mg/mL BSA, 0.1 mg/mL poly(dI-dC), 5 mM DTT, room temperature, 20 min; high values mean tight binding; recombinant protein; only the motif is given; counted as no binding.
Series [4] has as its target T2, POU1 (OCT1 POU domain) (human) (UniProt P14859).
T2 sequence (looked up, limits assumed): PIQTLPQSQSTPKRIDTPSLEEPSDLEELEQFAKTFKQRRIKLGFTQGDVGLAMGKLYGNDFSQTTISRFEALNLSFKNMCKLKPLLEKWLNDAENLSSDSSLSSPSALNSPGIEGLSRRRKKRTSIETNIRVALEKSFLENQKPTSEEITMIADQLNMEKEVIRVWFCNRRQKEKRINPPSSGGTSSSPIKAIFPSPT
The conditions noted are these: no BOB1; 20 mM Tris-HCl pH 7.6, 140 mM NaCl, 10% glycerol, 0.5 mM EDTA, 0.05% Triton X-100, 0.1 mg/mL BSA, 0.1 mg/mL poly(dI-dC), 5 mM DTT, room temperature, 20 min; high values mean tight binding; recombinant protein; only the motif is given; counted as no binding.

For some of these results: Where a protein sequence is shown, tags need not be part of it.

Consider AACCCAAG (double strand), for which, in series [1], the binding signal (% of ANNNNAAN 8-mers) came to 0.00826.

In the case of AACCTAAC (double strand), the binding signal (% of ANNNNAAN 8-mers) in series [2] came to 0.00921; in series [3] it was 0.00976.

As to AACGCAAC (double strand), the binding signal (% of ANNNNAAN 8-mers) in series [3] was 0.00858.

With ACACCAAC (double strand), in series [4], the binding signal (% of ANNNNAAN 8-mers) turned out to be 0.00801.

In the case of ACAGCAAC (double strand), the binding signal (% of ANNNNAAN 8-mers) in series [1] worked out at 0.00991.

Turning to ACCACAAC (double strand), the binding signal (% of ANNNNAAN 8-mers) in series [1] stood at 0.00908; in series [3], 0.00937.

As to ACCACAAG (double strand), the binding signal (% of ANNNNAAN 8-mers) in series [1] was 0.00826.

As to ACCCAAAC (double strand), the figures for the binding signal (% of ANNNNAAN 8-mers) in series [2] and in series [4] were 0.00748 and 0.00725, respectively.

ACCCCAAC (double strand): the binding signal (% of ANNNNAAN 8-mers) was 0.00413 in series [1], 0.00575 in series [2], 0.00546 in series [3] and 0.00496 in series [4].

On to ACCCCAAG (double strand), for which the binding signal (% of ANNNNAAN 8-mers) in series [1] was 0.00991; in series [4] it was 0.00839.

For the sequence ACCCGAAC (double strand), in series [3], the binding signal (% of ANNNNAAN 8-mers) came out at 0.00898.

In the case of ACCCTAAC (double strand), the binding signal (% of ANNNNAAN 8-mers) in series [3] was found to be 0.00819.

ACCGAAAC (double strand): in series [1], the binding signal (% of ANNNNAAN 8-mers) was found to be 0.00826.

ACCGCAAC (double strand): the binding signal (% of ANNNNAAN 8-mers) was found to be 0.00921 in series [2] and 0.00819 in series [3].

ACCGCAAG (double strand): the binding signal (% of ANNNNAAN 8-mers) in series [1] was 0.00991.

Regarding ACCGGAAG (double strand), the binding signal (% of ANNNNAAN 8-mers) in series [3] was 0.00898; in series [4], 0.00877.

In the case of ACCTCAAC (double strand), the binding signal (% of ANNNNAAN 8-mers) in series [2] was 0.00978; in series [4] it was 0.00725.

Turning to ACCTCAAG (double strand), the binding signal (% of ANNNNAAN 8-mers) in series [1] was determined as 0.00826.

As for ACCTGAAC (double strand), the binding signal (% of ANNNNAAN 8-mers) in series [2] was determined as 0.00863.

For ACGCCAAC (double strand), the binding signal (% of ANNNNAAN 8-mers) in series [1] amounted to 0.00908; in series [4], 0.00915.

On to ACGCCAAG (double strand), for which the binding signal (% of ANNNNAAN 8-mers) in series [3] turned out to be 0.00937.

As for ACTCCAAC (double strand), the binding signal (% of ANNNNAAN 8-mers) in series [2] turned out to be 0.00863.

In the case of ACTGCAAC (double strand), in series [1], the binding signal (% of ANNNNAAN 8-mers) is 0.00826.

Consider AGACCAAC (double strand), for which the binding signal (% of ANNNNAAN 8-mers) came to 0.00743 in series [1], 0.00921 in series [2], 0.00937 in series [3] and 0.00992 in series [4].

AGCACAAC (double strand): the binding signal (% of ANNNNAAN 8-mers) in series [3] turned out to be 0.00898.

As to AGCCCAAC (double strand), the values for the binding signal (% of ANNNNAAN 8-mers) in series [2] and in series [4] were 0.00921 and 0.00686, respectively.

As for AGCCCAAG (double strand), in series [2], the binding signal (% of ANNNNAAN 8-mers) came to 0.00978.

In the case of AGCTCAAC (double strand), in series [4], the binding signal (% of ANNNNAAN 8-mers) was 0.00877.
